Measurements as given in US9784752B2, “Venlafaxine assay” (Randox Laboratories, Limited, priority 2012, dated 2017).

Tested on: polyclonal antibody raised to Immunogen II
Assay: Competitive biochip immunoassay (Evidence Investigator) with Hapten-1 HRP detecting agent
Assay type: binding, sheep
Conditions: concentration causing 50% displacement of signal; competition with Hapten-1 HRP for immobilised polyclonal antibody; 30 minutes at 30° C.
Procedure: A semi-automated Evidence Investigator analyser (Randox Laboratories Ltd., Crumlin, UK) was used as the platform for a biochip assay for the detection of venlafaxine and O-desmethylvenlafaxine. Immunogen II was administered to adult sheep on a monthly basis to provide target-specific polyclonal antisera. IgG was extracted from the antisera, and the purified antibody was immobilised on a biochip (9 mm×9 mm). The assay is based on competition for binding sites of a polyclonal antibody between Hapten-1HRP detecting agent (Example 10) and venlafaxine and O-desmethylvenlafaxine and potential cross-reactants. The antibody was immobilised and stabilised onto the biochip surface as previously described (Fitzgerald et al., 2005). Assay diluent (155 μL), calibrator/venlafaxine and O-desmethylvenlafaxine or potential cross-reactant (25 μL) followed by Hapten-1 HRP detecting agent (120 μL) were added to the appropriate biochip. The biochips were then incubated for 30 minutes at 30° C. on a thermoshaker set at 370 rpm. The biochips were then subjected to 2 quick wash cycles using the wash buffer provided, followed by 4×2 minute wash cycles. 250 μL of signal (1:1 luminol+peroxide, v/v) was then added to each biochip, and after 2 minutes the biochip carrier was imaged in the Evidence Investigator analyser. […]

Compound: CCOC(=O)C1(c2ccccc2)CCN(C)CC1 [Meperidine]
- IC50: >0.32 mg/L
